# Source: article PMC4776379
# By UniProt entry, the sequences of proteins in these tests, tags left out. Residues count along the entry.
# UniProt Q10589, 1-161: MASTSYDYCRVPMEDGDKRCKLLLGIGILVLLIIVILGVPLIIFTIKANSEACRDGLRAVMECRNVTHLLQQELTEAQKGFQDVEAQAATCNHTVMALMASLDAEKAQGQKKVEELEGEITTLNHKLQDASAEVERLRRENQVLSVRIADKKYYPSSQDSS
# No constants are given. Whether binding was seen depends on the method and setting. In cells and extracts the contact can be indirect. Some binding calls cover weakened binding; strength is not graded here.
# How the values were obtained:
# HA tagged β-TrCP2 = HA tagged β-TrCP2 (UniProt Q9UKB1); assay: co-IP; […] (20 mM Tris–HCl pH 7.5, 200 mM NaCl, 1 % Triton X-100), […]
# HA tagged BST-2 (human) = HA tagged BST-2 (human) (UniProt Q10589); assay: as above
# [1] = target: Rluc tagged BST-2 (human) (UniProt Q10589); assay: FRET or BRET; BRET2 in co-transfected 293T cells, EYFP and Rluc fusions, substrate DeepBlueC 5 μM; cells treated with DMSO or 5 µM 2-thio-6-azauridine for 24 h; HA tagged BST-2 co-expressed in the Vpu/β-TrCP2 experiment
# Rluc tagged β-TrCP2 = Rluc tagged β-TrCP2 (UniProt Q9UKB1); assay: as above
Substance,binding (HA tagged β-TrCP2),binding (HA tagged BST-2 (human)),binding [1],binding (Rluc tagged β-TrCP2)
"Vpu (codon-optimized, from plasmid pVphu) (from UniProt P05923 1-81)",binds,binds,,
EYFP tagged Vpu (S52/56N) (from UniProt P05923 1-81),,,binds,
EYFP tagged Vpu (from UniProt P05923 1-81),,,binds,binds
